Measured values published in PMC6795475.
Read-outs that look alike come from different tables or passages of the source. Results are given in words; binding and its absence hold for the method and conditions named. Binding seen in cells or lysates may run through a third protein. Some entries that bind do so weakly or less than the wild type. Tags and fused reporters may be left off the sequences shown. One block for each binder: values may come before it.

Tests used:
Pcf1-YFP (S. pombe) [1] = target: T1, Pcf1-YFP (S. pombe) (UniProt Q1MTN9)
T1 sequence: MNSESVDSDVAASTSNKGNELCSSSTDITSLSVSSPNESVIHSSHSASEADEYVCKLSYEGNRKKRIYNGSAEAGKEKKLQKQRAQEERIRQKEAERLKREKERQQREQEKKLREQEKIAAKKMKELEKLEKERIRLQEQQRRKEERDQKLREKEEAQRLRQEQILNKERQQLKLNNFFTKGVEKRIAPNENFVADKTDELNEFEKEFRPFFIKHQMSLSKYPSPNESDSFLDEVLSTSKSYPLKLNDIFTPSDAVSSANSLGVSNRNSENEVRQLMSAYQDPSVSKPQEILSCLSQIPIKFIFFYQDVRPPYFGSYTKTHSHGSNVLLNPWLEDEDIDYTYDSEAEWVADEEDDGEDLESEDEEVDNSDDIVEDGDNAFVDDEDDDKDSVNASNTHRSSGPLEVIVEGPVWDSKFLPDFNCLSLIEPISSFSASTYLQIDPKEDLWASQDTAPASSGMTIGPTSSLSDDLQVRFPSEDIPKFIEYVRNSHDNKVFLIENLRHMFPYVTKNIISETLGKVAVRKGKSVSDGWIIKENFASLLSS

Pcf1-YFP (S. pombe) [2] = target: T1, Pcf1-YFP (S. pombe); remark: listed apart in the source

binding (Pcf1-YFP (S. pombe) [1]): binds
B1: Pcf2-MYC (protein, UniProt O13985 1-512)
chain: MRAEVLQIRWHYDANDDHTPIYSVDFQKNSLNKFATCGGDSKIRIWQLITSESSTKVEYLSTLSRHTQAVNVVRFNPEGNILATAGDEGTIMLWVPTNTPITTLADDAEELALAKEYWKVKIVCRSMGSEIYDLCWSVDSNFLIAGAMDNSLRLYDAHTGQLLTQKFDHSHYVQGVCWDPLNQYIVSESSDRSICLYEIQEEKKNPKKFQLVLKSRICRIEYNVTKFELISVTKPLNNDESSGISEPIETSNNNESPVSKHEALSSTANIVKDGSLERTEPPNSLNSKISYSLYCNETLVSFFRRPAFSPDGLLLVTPAGRLRPHGQPNFEVPYTAYIYTRGSITKQPVACLNGFKKPVIAVRFSPIHYELNSFSNFSFTSVSFNLPYRMVFAVACQDAVYIYDTQTCKPFYRAVNLHYSNLTDIAWNDDGNVLLMTSIDGFCSVITFEPGELGVKSQHKISLPEKRSASPSSIDDSQDNTAGGPATTTLIPRKVESSKVSKKRIAPTPVYP

binding (Pcf1-YFP (S. pombe) [2]): binds
B2: Rqh1-MYC (protein, UniProt Q09811 1-1328)
chain: MTVTKTNLNRHLDWFFRESPQKIENVTSPIKTLDFVKVKVSSSDIVVKDSIPHKSKNVFDDFDDGYAIDLTEEHQSSSLNNLKWKDVEGPNILKPIKKIAVPASESEEDFDDVDEEMLRAAEMEVFQSCQPLAVNTADTTVSHSTSSSNVPRSLNKIHDPSRFIKDNDVENRIHVSSASKVASISNTSKPNPIVSENPISATSVSIEIPIKPKELSNNLPFPRLNNNNTNNNNDNNAIEKRDSASPTPSSVSSQISIDFSTWPHQNLLQYLDILRDEKSEISDRIIEVMERYPFSSRFKEWIPKRDILSQKISSVLEVLSNNNNSNNNNGNNGTVPNAKTFFTPPSSITQQVPFPSTIIPESTVKENSTRPYVNSHLVANDKITATPFHSEAVVSPLQSNIRNSDIAEFDEFDIDDADFTFNTTDPINDESGASSDVVVIDDEEDDIENRPLNQALKASKAAVSNASLLQSSSLDRPLLGEMKDKNHKVLMPSLDDPMLSYPWSKEVLGCLKHKFHLKGFRKNQLEAINGTLSGKDVFILMPTGGGKSLCYQLPAVIEGGASRGVTLVISPLLSLMQDQLDHLRKLNIPSLPLSGEQPADERRQVISFLMAKNVLVKLLYVTPEGLASNGAITRVLKSLYERKLLARIVIDEAHCVSHWGHDFRPDYKQLGLLRDRYQGIPFMALTATANEIVKKDIINTLRMENCLELKSSFNRPNLFYEIKPKKDLYTELYRFISNGHLHESGIIYCLSRTSCEQVAAKLRNDYGLKAWHYHAGLEKVERQRIQNEWQSGSYKIIVATIAFGMGVDKGDVRFVIHHSFPKSLEGYYQETGRAGRDGKPAHCIMFYSYKDHVTFQKLIMSGDGDAETKERQRQMLRQVIQFCENKTDCRRKQVLAYFGENFDKVHCRKGCDICCEEATYIKQDMTEFSLQAIKLLKSISGKATLLQLMDIFRGSKSAKIVENGWDRLEGAGVGKLLNRGDSERLFHHLVSEGVFVEKVEANRRGFVSAYVVPGRQTIINSVLAGKRRIILDVKESSSKPDTSSRSLSRSKTLPALREYQLKSTTASVDCSIGTREVDEIYDSQMPPVKPSLIHSRNKIDLEELSGQKFMSEYEIDVMTRCLKDLKLLRSNLMAIDDSRVSSYFTDSVLLSMAKKLPRNVKELKEIHGVSNEKAVNLGPKFLQVIQKFIDEKEQNLEGTELDPSLQSLDTDYPIDTNALSLDHEQGFSDDSDSVYEPSSPIEEGDEEVDGQRKDILNFMNSQSLTQTGSVPKRKSTSYTRPSKSYRHKRGSTSYSRKRKYSTSQKDSRKTSKSANTSFIHPMVKQNYR
